Values quoted from earlier work in patent publication US9050267B2 (Novartis AG, priority 2011, dated 2015).
At least one structure is not confirmed: it was looked up by name or label, or the drawing left a doubt.

Settings: cited from earlier work

For `OC[C@H]1O[C@H](O[C@H]2[C@H](O)[C@@H](O)[C@@H](O[C@H]3[C@H](O)[C@@H](O)[C@@H](O[C@H]4[C@H](O)[C@@H](O)[C@@H](O[C@H]5[C@H](O)[C@@H](O)[C@@H](O[C@H]6[C@H](O)[C@@H](O)C(O)O[C@@H]6CO)O[C@@H]5CO)O[C@@H]4CO)O[C@@H]3CO)O[C@@H]2CO)[C@H](O)[C@@H](O)[C@@H]1O` (stereo partly shown) [maltohexose], the “Dry Tg” value is listed as 173 °C.
